Assay: general procedure: Fmoc solid-phase peptide synthesis; Wang resin (loading 1.1 mmol/g) for C-terminal acid peptides; Rink Amide-MBHA; DIC/DMAP (first residue loading)
Conditions: whole synthesis, 214 nm, scale of the general procedure 5.0 mmol

Row | Substance | final HPLC purity [%]
1 | (Z360)-E-gE-OEG-gE-K(DOTA)-OEG-f[CYwKTC]T-OH | 97.4
2 | (Z360)-gE-gE-OEG-K(DOTAGA)-OEG-f[CYwKTC]T-OH | 87.1
3 | (Z360)-gE-gE-OEG-OEG-K(DOTAGA)-OEG-OEG-f[CYwKTC]T-OH | 87.5
4 | Ac-Tyr-Gly-e-e-e-e-e-e-AYGW-NIe-DF-NH2 | 94.6
5 | DO TA-e-e-e-e-e-e-AYGW-Nle-DF-NH2 | 95.5
6 | DOTA-G-G-K(Z360)-f[CYwKTC]T-OH | 98.8
7 | DOTA-G-S-K(Z360)-G-S-f[CYwKTC]T-OH | 95.6
8 | DOTA-K(Z360)-G-S-G-f[CYwKTC]T-OH | 98.9
9 | DOTA-e-e-e-e-e-e-Ala-Tyr-Gly-Trp-Nle-Asp-Phe-NH2 | 95

Same assay, conditions: whole synthesis, 214 nm, scale of the general procedure 5.0 mmol, one disulfide bridge

Row | Substance | final HPLC purity [%]
10 | DOT A-K(-OEG-OEG-Glu-Z360)-OEG-f[CYwKTC]T-OH | 100
11 | DOTA-Aoc-K(Z360)-f[CYwKTC]T-OH | 96.5
12 | DOTA-K(-Glu-Z360)-Ahx-f[CYwKTC]T-OH | 96
13 | DOTA-K(-OEG-HGlu-Dap7Z360)-OEG-f[CYwKTC]T-OH | 100
14 | DOTA-K(-OEG-His-Glu-Z360)-OEG-f[CYwKTC]T-OH | 100
15 | DOTA-K(-OEG-OEG-Cbp-Z360)-OEG-f[CYwKTC]T-OH | 98
16 | DOTA-K(-OEG-gGlu-Ser-Z360)-OEG-f[CYwKTC]T-OH | 100
17 | DOTA-K(Z360)-Glu-gGlu-OEG-OEG-f[CYwKTC]T-OH | 100
18 | DOTA-K(Z360)-gGlu-OEG-OEG-f[CYwKTC]T-OH | 100
19 | DOTA-gE-gE-gE-OEG-Lys(-gE-G-Z360)-OEG-f[CYwKTC]T-OH | >99.0
20 | DOTAGA-K(-Glu-Z360)-Ahx-Ahx-f[CYwKTC]T-OH | 100
21 | DOTAGA-K(-Glu-Z360)-Ahx-f[CYwKTC]T-OH | 94
22 | DOTAGA-K(-Glu-Z360)-Aoc-Aoc-f[CYwKTC]T-OH | 100
23 | DOTAGA-K(-Glu-Z360)-OEG-f[CYwKTC]T-OH | 96
24 | DOTAGA-K(-Glu-Z360)-f[CYwKTC]T-OH | 97

From patent publication US20260248972A1 (priority 2022, published 2026)
